Source: PMC8486878
These are yes or no findings as the source states them, for the method shown. In cells and extracts the contact can be indirect. Sequences can lack the tags named with a protein.

Protein sequences, listed by entry. Tags and fused reporters are not part of them. Residues count along the entry.
UniProt P05161, residues 1-157: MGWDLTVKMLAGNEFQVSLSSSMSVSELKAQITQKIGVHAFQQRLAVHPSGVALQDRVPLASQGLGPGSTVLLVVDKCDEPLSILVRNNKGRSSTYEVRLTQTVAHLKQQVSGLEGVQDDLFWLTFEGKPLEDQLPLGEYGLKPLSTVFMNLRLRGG

Biological target: GST-tagged ISG15 (UniProt P05161)
Assay: pull-down; GST-tagged UBL (ISG15, SUMO1 or ubiquitin) on magnetic glutathione beads mixed with a lysate of transfected HEK293T cells, overnight 4 °C, three washes in 50 mM Tris.HCl pH 8.0, 150 mM NaCl, 1% triton-x-100; immunoblot against FLAG and GST; only the target purified

B1: complementary C-terminal fragment of RNF213 (FLAG-C-domain-RNF213) (domain or fragment, UniProt Q63HN8 3998-5207)
chain: SICLGDAKDPVCLPCDHVHCLRCLRAWFASEQMICPYCLTALPDEFSPAVSQAHREAIEKHARFRQMCNSFFVDLVSTICFKDNAPPEKEVIESLLSLLFVQKGRLRDAAQRHCEHTKSLSPFNDVVDKTPVIRSVILKLLLKYSFHDVKDYIQEYLTLLKKKAFITEDKTELYMLFINCLEDSILEKTSAYSRNDELNHLEEEGRFLKAYSPASRGREPANEASVEYLQEVARIRLCLDRAADFLSEPEGGPEMAKEKQCYLQQVKQFCIRVENDWHRVYLVRKLSSQRGMEFVQGLSKPGRPHQWVFPKDVVKQQGLRQDHPGQMDRYLVYGDEYKALRDAVAKAVLECKPLGIKTALKACKTPQSQQSAYFLLTLFREVAILYRSHNASLHPTPEQCEAVSKFIGECKILSPPDISRFATSLVDNSVPLLRAGPSDSNLDGTVTEMAIHAAAVLLCGQNELLEPLKNLAFSPATMAHAFLPTMPEDLLAQARRWKGLERVHWYTCPNGHPCSVGECGRPMEQSICIDCHAPIGGIDHKPRDGFHLVKDKADRTQTGHVLGNPQRRDVVTCDRGLPPVVFLLIRLLTHLALLLGASQSSQALINIIKPPVRDPKGFLQQHILKDLEQLAKMLGHSADETIGVVHLVLRRLLQEQHQLSSRRLLNFDTELSTKEMRNNWEKEIAAVISPELEHLDKTLPTMNNLISQDKRISSNPVAKIIYGDPVTFLPHLPRKSVVHCSKIWSCRKRITVEYLQHIVEQKNGKERVPILWHFLQKEAELRLVKFLPEILALQRDLVKQFQNVQQVEYSSIRGFLSKHSSDGLRQLLHNRITVFLSTWNKLRRSLETNGEINLPKDYCSTDLDLDTEFEILLPRRRGLGLCATALVSYLIRLHNEIVYAVEKLSKENNSYSVDAAEVTELHVISYEVERDLTPLILSNCQYQVEEGRETVQEFDLEKIQRQIVSRFLQGKPRLSLKGIPTLVYRHDWNYEHLFMDIKNKMAQDSLPSSVISAISGQLQSYSDACEVLSVVEVTLGFLSTAGGDPNMQLNVYTQDILQMGDQTIHVLKALNRCQLKHTIALWQFLSAHKSEQLLRLHKEPFGEISSRYKADLSPENAKLLSTFLNQTGLDAFLLELHEMIILKLKNPQTQTEERFRPQWSLRDTLVSYMQTKESEILPEMASQFPEEILLASCVSVWKTAAVLKWNREMR
- binding: no binding
